Results deposited as PubChem BioAssay AID1159584 (Peter MacCallum Cancer Centre, 2016)
This is a random part of about 18,000 reagents. Further read-outs or replicates are left out here. Not given: the amount of reagent, the time to read-out.

Purpose: 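Genes whose loss is lethal only together with E-cadherin loss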 (primary screen)
Cell system: human MCF10A breast epithelial cells, parental and CDH1-null
Reagents: siRNA against human genes
Measured: 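Cell viability by CellTiter-Glo ATP luminescence, each line scaled to the mean of mock wells across plates, then CDH1-null over parental ratio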
Scale: CDH1-null / parental viability ratio: higher = CDH1-null cells survive relatively better than parental; CDH1-null viability vs mock: higher = more viable CDH1-null cells

PRKAR2A — CDH1-null / parental viability ratio: 1.11; CDH1-null viability vs mock (fraction of mock): 0.92
JADE2 (jade family PHD finger 2) — CDH1-null / parental viability ratio: 1.04; CDH1-null viability vs mock (fraction of mock): 1.03
MDP1 (magnesium dependent phosphatase 1) — CDH1-null / parental viability ratio: 1.18; CDH1-null viability vs mock (fraction of mock): 0.85
MRPS34 (mitochondrial ribosomal protein S34) — CDH1-null / parental viability ratio: 1.02; CDH1-null viability vs mock (fraction of mock): 0.88
ZCCHC13 (zinc finger CCHC-type containing 13) — CDH1-null / parental viability ratio: 1.04; CDH1-null viability vs mock (fraction of mock): 0.83
ACTL10 (actin like 10) — CDH1-null / parental viability ratio: 1.31; CDH1-null viability vs mock (fraction of mock): 0.42
STK11IP (serine/threonine kinase 11 interacting protein) — CDH1-null / parental viability ratio: 0.99; CDH1-null viability vs mock (fraction of mock): 1.18
POC5 (POC5 centriolar protein) — CDH1-null / parental viability ratio: 0.7; CDH1-null viability vs mock (fraction of mock): 0.6
CCL14 (C-C motif chemokine ligand 14) — CDH1-null / parental viability ratio: 1.05; CDH1-null viability vs mock (fraction of mock): 1.04
S100A7A (S100 calcium binding protein A7A) — CDH1-null / parental viability ratio: 0.94; CDH1-null viability vs mock (fraction of mock): 0.45
DUS3L (dihydrouridine synthase 3 like) — CDH1-null / parental viability ratio: 1.16; CDH1-null viability vs mock (fraction of mock): 0.36
ACKR3 (atypical chemokine receptor 3) — CDH1-null / parental viability ratio: 0.8; CDH1-null viability vs mock (fraction of mock): 0.66
SLC7A5 — CDH1-null / parental viability ratio: 0.93; CDH1-null viability vs mock (fraction of mock): 0.76
NEIL1 (nei like DNA glycosylase 1) — CDH1-null / parental viability ratio: 0.88; CDH1-null viability vs mock (fraction of mock): 0.6
PLA2G15 (phospholipase A2 group XV) — CDH1-null / parental viability ratio: 0.89; CDH1-null viability vs mock (fraction of mock): 0.99
LHB (luteinizing hormone subunit beta) — CDH1-null / parental viability ratio: 1.03; CDH1-null viability vs mock (fraction of mock): 1
PIGR (polymeric immunoglobulin receptor) — CDH1-null / parental viability ratio: 0.72; CDH1-null viability vs mock (fraction of mock): 0.46
BORCS5 (BLOC-1 related complex subunit 5) — CDH1-null / parental viability ratio: 1.06; CDH1-null viability vs mock (fraction of mock): 0.91
PLA2G2A (phospholipase A2 group IIA) — CDH1-null / parental viability ratio: 0.91; CDH1-null viability vs mock (fraction of mock): 0.82
ZNF419 (zinc finger protein 419) — CDH1-null / parental viability ratio: 0.93; CDH1-null viability vs mock (fraction of mock): 0.78
GUCA2A (guanylate cyclase activator 2A) — CDH1-null / parental viability ratio: 1.22; CDH1-null viability vs mock (fraction of mock): 1.05
TAPBPL (TAP binding protein like) — CDH1-null / parental viability ratio: 1.4; CDH1-null viability vs mock (fraction of mock): 0.7
ALG5 (ALG5 dolichyl-phosphate beta-glucosyltransferase) — CDH1-null / parental viability ratio: 1.16; CDH1-null viability vs mock (fraction of mock): 1
FAM3B (FAM3 metabolism regulating signaling molecule B) — CDH1-null / parental viability ratio: 1.05; CDH1-null viability vs mock (fraction of mock): 0.86

An excerpt from the list above:
TAPBPL (TAP binding protein like) — CDH1-null / parental viability ratio: 1.4; CDH1-null viability vs mock (fraction of mock): 0.7
ALG5 (ALG5 dolichyl-phosphate beta-glucosyltransferase) — CDH1-null / parental viability ratio: 1.16; CDH1-null viability vs mock (fraction of mock): 1
FAM3B (FAM3 metabolism regulating signaling molecule B) — CDH1-null / parental viability ratio: 1.05; CDH1-null viability vs mock (fraction of mock): 0.86
